Assay results taken from the supplement of paper PMC12889115.
Some of the results follow. Values are raw readings; no control value is given beside them.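 Primary screen: polymyxin B was added at a level permeabilizing Salmonella outer membranes while sparing inner membranes. DMSO wells, both with and without polymyxin B, established maximum growth. Plate-to-plate variation meant each plate was ranked on its own, and the lowest-OD600 compounds were selected as hits.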

Tested on: Salmonella enterica serovar Typhimurium SL1344
Experiment: bacterial growth OD600 after 18 h with compound and polymyxin B; higher = more bacterial growth (less inhibition)
Conditions: 50 µM, Mueller-Hinton broth

| SMILES | bacterial growth OD600 (polymyxin B 0.75 µg/mL) | bacterial growth OD600 (polymyxin B 1 µg/mL) |
| --- | --- | --- |
| C=CCO[C@H]1[C@H](NC(=O)COC)c2ccccc2C12CCN(C(=O)/C=C/c1cc(F)ccc1F)CC2 | -0.004 | – |
| O=C(Nc1ccc(N2CCC(NC(c3ccccn3)C(F)(F)F)CC2)cc1)c1cnccn1 (stereo not given) | 0.835 | – |
| COc1ccccc1CCNC(=O)Cc1ccc(N2CCC(NCCc3cccs3)CC2)cc1 | 0.757 | – |
| COc1ccc(C(=O)Nc2ccnn2C2CCN(C(=O)c3cc(C)nc(C)n3)CC2)cc1 | – | 0.913 |
| Cc1oc(-c2ccc(F)cc2F)nc1CN(C)Cc1ccccc1C(F)(F)F | – | 0.856 |
| COc1ccc(OC)c(Cc2nnc(CCC(=O)NC3CCCCCCC3)o2)c1 | – | 0.537 |
| CCOC(=O)C1(CCc2ccccc2)CCN(C(=O)CSc2ncccn2)CC1 | – | 0.758 |
| CCN(C)c1ccc(-c2nc(Cc3ccc(OC)cc3)no2)cn1 | – | 0.862 |
| CN(CCc1ccccc1)C1CCCN(C(=O)c2cccc(N3CCOCC3)c2)C1 (stereo not given) | – | 1.21 |
| COc1ccc(OC2CCN(C3CCCC3)CC2)c(C(=O)NCc2csc(C)n2)c1 | – | 1.17 |
| Cc1ccn(CCC(=O)NC2CCCc3c2cnn3-c2ccc(F)cc2F)n1 (stereo not given) | – | 0.844 |
| CCOC(=O)C1(CCCc2ccccc2)CCN(C(=O)CSC)CC1 | – | 0.368 |
| CCN1CCN(C(=O)c2coc(COc3cccc(F)c3F)n2)CC1 | – | 0.97 |
| COc1cc(NC(=O)CCC2CCCN(C(=O)Cc3cccnc3)C2)cc(OC)c1 (stereo not given) | – | 1.11 |
| CSc1ccccc1N1C(=O)CN(C(=O)[C@@H]2C[C@H]2c2ccccc2)CC1C (stereo not given in full) | 0.805 | – |
| CN(C(=O)c1cccs1)C(Cc1ccccc1F)C1CCN(C(=O)/C=C/c2ccncc2)CC1 (stereo not given) | 0.864 | – |
| COc1ccccc1CCN1CCC(CN(C)C(=O)c2ccc(F)c(Cl)c2)CC1 | – | 1.14 |
| CCOC(=O)C1(CC2CC2)CCN(Cc2ccc(F)c(OC)c2)CC1 | – | 0.893 |
| O=S(=O)(CC1CC1)c1ncc(CN2CCSCC2)n1CC1CCCO1 (stereo not given) | – | 0.911 |
| Cc1cnccc1CNC(=O)C1(N2C[C@@H](C)O[C@@H](C)C2)Cc2ccccc2C1 | – | 1.22 |
| CC(C)CCNC(=O)c1cn(CC(C)C)cc(C(=O)N2CCN(C/C=C/c3ccccc3)CC2)c1=O | 0.015 | – |
| CCOC(=O)N1CCN(Cc2c[nH]nc2-c2ccc(C)c(C)c2)CC1 | – | 0.918 |
| CCN1CCN(C2(C(=O)NC(C)Cc3cccnc3)Cc3ccccc3C2)CC1 (stereo not given) | 0.793 | – |
| CCc1[nH]c2ccc(CNC(=O)CCN3CCCO3)cc2c1C | – | 1.03 |
| Cc1c(CN2CCCC(Nc3cccc(F)c3)C2)c(=O)n(-c2ccccc2)n1C (stereo not given) | – | 1.15 |
| Cc1cccc(-c2cnc(-c3ccncc3)nc2C2CCN(Cc3cccc(OCCO)c3)CC2)c1 | 0.683 | – |
| O=C(Nc1nc2c(s1)C(=O)CC(C(=O)NC(c1ccccc1)c1ccccc1)C2)c1ccncc1 (stereo not given) | 0.746 | – |
| O=C(CCC1CCCN(C(=O)c2ccsc2)C1)NCc1ccccc1Cl (stereo not given) | – | 0.947 |
| COc1ccc(F)c(CN2CCCC(CO)(Cc3ccc(F)cc3)C2)c1 (stereo not given) | 0.678 | – |
| Cc1cc(C)n(-c2cccc(CN(C)C(=O)C3CCC(=O)N(C4CCCC4)C3)c2)n1 (stereo not given) | – | 0.819 |

An excerpt of these results, bar-delimited.
SMILES | bacterial growth OD600 (polymyxin B 0.75 µg/mL) | bacterial growth OD600 (polymyxin B 1 µg/mL)
Cc1cnccc1CNC(=O)C1(N2C[C@@H](C)O[C@@H](C)C2)Cc2ccccc2C1 | – | 1.22
CC(C)CCNC(=O)c1cn(CC(C)C)cc(C(=O)N2CCN(C/C=C/c3ccccc3)CC2)c1=O | 0.015 | –
